Reference: patent publication US20230357398A1
No constants are given. Whether binding was seen depends on the method and setting. Some binding calls cover weakened binding; strength is not graded here.

Amino acid sequences for entries named in this document (tags omitted). A change or cut given only in a name is not applied to a line headed by its entry.
UniProt P07766: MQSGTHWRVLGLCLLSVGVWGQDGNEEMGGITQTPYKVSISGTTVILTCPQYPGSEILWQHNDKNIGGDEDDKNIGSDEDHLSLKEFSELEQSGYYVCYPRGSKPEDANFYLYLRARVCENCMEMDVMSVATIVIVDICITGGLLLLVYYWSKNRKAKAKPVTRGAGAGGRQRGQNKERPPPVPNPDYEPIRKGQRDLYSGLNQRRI

Tests used:
[1] = target: human CD3 epsilon, cell surface expressed (human PBMCs / human T cells) (human) (UniProt P07766); test: flow cytometry on human PBMCs, IgG titration
[2] = target: human CD3 epsilon, cell surface expressed (human PBMCs / human T cells) (human) (UniProt P07766); test: cell binding, flow cytometry on human PBMCs
[3] = target: human CD3 epsilon, cell surface expressed (human PBMCs / human T cells) (human) (UniProt P07766); test: flow cytometry (FACS) on human PBMCs, FabCys

| Binder | binding [1] | binding [2] | binding [3] |
| --- | --- | --- | --- |
| MAB-9_h_FabCys (Fab, V domains shown) VH: EVQLVESGGGLVQPGGSLRLSCAASGFTFRSHYMTWVRQAPGKGLEWVANIDYEGTRTYYAESVKGRFTISRDNAKNSLYLQMNSLRAEDTAVYYCARGYSAEFAHRSGLDVWGQGTLVTVSS VL: QSVLTQPPSASGTPGQRVTISCSGSSSNIGINYVYWYQQLPGTAPKLLIYRNNIRPSGVPDRFSGSKSGTSASLAISGLRSEDEADYYCAAWDRHSHGAVFGGGTKLTVLG | – | – | binds |
| MAB-16_h_FabCys (Fab, V domains shown) VH: EVQLVESGGGLVQPGGSLRLSCAASGFTFRSHYMTWVRQAPGKGLEWVANIDYEGTRTYYAESVKGRFTISRDNAKNSLYLQMNSLRAEDTAVYYCARGYSAEFAHRSGLDVWGQGTLVTVSS VL: QSVLTQPPSASGTPGQRVTISCSGSSSNIGSNYVYWYQQLPGTAPKLLIYRNNQRPSGVPDRFSGSKSGTSASLAISGLRSEDEADYYCAGWDRRLHGAVFGGGTKLTVLG | – | – | binds |
| MAB-12_h_FabCys (Fab, V domains shown) VH: EVQLVESGGGLVQPGGSLRLSCAASGFTFRSHYMTWVRQAPGKGLEWVANIDYEGTRTYYAESVKGRFTISRDNAKNSLYLQMNSLRAEDTAVYYCARGYSAEFAHRSGLDVWGQGTLVTVSS VL: QSVLTQPPSASGTPGQRVTISCSGSSSNIGANYVYWYQQLPGTAPKLLIYRNNQRPSGVPDRFSGSKSGTSASLAISGLRSEDEADYYCAAWDRHSHGAVFGGGTKLTVLG | – | – | binds |
| MAB-8_h_FabCys (Fab, V domains shown) VH: EVQLVESGGGLVQPGGSLRLSCAASGFTFRSHYMTWVRQAPGKGLEWVANIDYEGTRTYYAESVKGRFTISRDNAKNSLYLQMNSLRAEDTAVYYCARGYSAEFAHRSGLDVWGQGTLVTVSS VL: QSVLTQPPSASGTPGQRVTISCSGSSSNIGSNYVYWYQQLPGTAPKLLIYRNNQRPSGVPDRFSGSKSGTSASLAISGLRSEDEADYYCAAWDRHSHGAVFGGGTKLTVLG | – | – | binds |
| MAB-13_h_FabCys (Fab, V domains shown) VH: EVQLVESGGGLVQPGGSLRLSCAASGFTFRSHYMTWVRQAPGKGLEWVANIDYEGTRTYYAESVKGRFTISRDNAKNSLYLQMNSLRAEDTAVYYCARGYSAEFAHRSGLDVWGQGTLVTVSS VL: QSVLTQPPSASGTPGQRVTISCSGSSSNIGINYVYWYQQLPGTAPKLLIYRNNQRPSGVPDRFSGSKSGTSASLAISGLRSEDEADYYCAAWDRHSHGAVFGGGTKLTVLG | – | – | binds |

Next, values leading:

| binding [1] | binding [2] | binding [3] | Binder |
| --- | --- | --- | --- |
| binds | binds | – | MAB-1 (parental) (antibody, V domains shown) VH: EVQLVESGGGLVQPGGSLRLSCAASGFTFSSYWMSWVRQAPGKGLEWVANIKQDGSEKYYVDSVKGRFTISRDNAKNSLYLQMNSLRAEDTAVYYCARGYSAEFAHRSGLDVWGQGTLVTVSS VL: QSVLTQPPSASGTPGQRVTISCSGSSSNIGSNYVYWYQQLPGTAPKLLIYRNNQRPSGVPDRFSGSKSGTSASLAISGLRSEDEADYYCAAWDHHRSGAVFGGGTKLTVLG |
| – | – | binds | MAB-7_h_FabCys (Fab, V domains shown) VH: EVQLVESGGGLVQPGGSLRLSCAASGFTFKSYYMSWVRQAPGKGLEWVANIDYQSQHAYYAESVKGRFTISRDNAKNSLYLQMNSLRAEDTAVYYCARGYSAEFAHRSGLDVWGQGTLVTVSS VL: QSVLTQPPSASGTPGQRVTISCSGSSSNIGSNYVYWYQQLPGTAPKLLIYRNNQRPSGVPDRFSGSKSGTSASLAISGLRSEDEADYYCAAWDRHSHGAVFGGGTKLTVLG |
